Experimental data published in PubChem BioAssay AID2685 (National Center for Advancing Translational Sciences (NCATS), 2010).
In all, about 320,000 compounds went through this assay and about 2,100 (0.66%) were called active. The inconclusive results got no clear call from the source; some entries with a clear call stand among them for comparison. Calls follow the shape of the dose curve; as a rule, active = well fitted inhibition curve with a large enough effect in the signal ratio, with a control signal flat (not every such curve was filed as active); inconclusive = small, poorly fitted or top-dose-only effect, or effect the other way, or a change in a side signal; inactive = flat fitted curve, though single readings scatter; the % refers to the signal ratio. A potency beside an inconclusive call is a rough fit, not a confirmed value. Where a SMILES comes first, the peptide text is derived from it. The star is where a group is joined. OPac = O=C(CO*)c1ccccc1; Bz = O=C(c1ccccc1)*

experiment: qHTS Assay for Lipid Storage Modulators in Drosophila S3 Cells; conditions: BODIPY lipid droplet fluorescence, 18-24 h, cells fed with added oleic acid; lipid storage change, negative = inhibition: at 46.1 µM (top of the series) unless noted
Outline: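 Drosophila S3 cells loaded with oleic acid (400 uM, as added) and compounds at several concentrations; lipid droplets imaged by 488-nm laser-scanning cytometry, 500–530 nm intensity and object ratio to cell channel. Percent activity normalized to 20 uM Triacsin C.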
% is scaled to controls: 0 for no effect and ±100 for the full control effect; potency is read from the fitted curve at half-maximal effect.

Lipid storage change, negative = inhibition, inconclusive:
Cc1cccc(OCC(=O)Nc2ccccc2N2CCCC2)c1C 22.8%, COc1ccc(CNC(=O)CN(Cc2ccccc2)C(=O)CCC(=O)Nc2ccccn2)cc1 -20.8%, CCOC(=O)C(C)Oc1cccc2c(=O)n(CC(=O)Nc3ccc4c(c3)OCCO4)ccc12 (stereo unspecified) 7.39% [at 9.22 µM], CCCNC(=O)C(Cc1ccccc1F)NC(=O)c1ccc(C#N)cc1 (stereo unspecified) 6.13%, COc1ccc(NC(=O)c2oc3ccccc3c2NC(=O)COc2ccccc2OC)c(OC)c1 -16.2%, CN1OC(COC(=O)c2ccccc2)CC1c1ccccc1 (stereo unspecified) 13%, CN(C)CCOC(C1CCCCC1)C1CCCCC1 24.7%, CN(CC(=O)Nc1cccc(F)c1)C(=O)C1CC(=O)N(Cc2ccco2)C1 (stereo unspecified) 2.09%, O=C(O)CC1NCCc2ccccc21 (stereo unspecified) -26.7%, CCn1cc(C(=O)OCC(=O)Nc2cccc(C)c2)c(=O)c2ccc(C)nc21 -6.18%, CC(=O)Oc1ccc(N(C(C)=O)S(=O)(=O)c2ccc3ccccc3c2)cc1 -7.42%, CCCS(=O)(=O)c1ccc(COC(=O)c2cccc(NC(=O)C(C)C)c2)cc1 -5.27%, O=[N+]([O-])c1ccc(OCC(O)CN2CCN(c3ccccc3F)CC2)cc1 (stereo unspecified) 24.1%, CN(Cc1ccco1)Cc1ccc(O)c2ncccc12 -19.1%, O=C(CNC(=O)c1ccccc1)OCc1nnc(-c2ccc(Cl)cc2)o1 -12.7%, COc1ccc(OC)c(CNC(=O)c2coc(=O)c3ccccc23)c1 21.3%, COc1ccc(S(=O)(=O)NC(C)C(=O)NCCN2CCOCC2)cc1Cl (stereo unspecified) -51.1%, COc1ccccc1N=C(C)C1=C(O)COC1=O 4.58%, Cc1ccc(CNC(=O)C2CNc3cc(C)ccc3O2)cc1 (stereo unspecified) -73.7%, O=C(Nc1ccc(N2CCCCC2)cc1)c1cc([N+](=O)[O-])cc([N+](=O)[O-])c1 28.1%, CCn1nc(C)c(/C=N/NC(=O)Cc2ccc(Cl)cc2)c1C 21.3%, CC(OC(=O)Cc1c(F)cccc1Cl)C(=O)NC1(C#N)CCCCC1 (stereo unspecified) -3.59%, Cn1c(SCC(=O)NCc2cccs2)nnc1-c1ccco1 -92.5%, CCOc1ccc(C(C)=O)cc1COC(=O)CN1C(=O)NC2(CCCC2)C1=O -15.1%, Cn1c(SCC(=O)Nc2ccc(Cl)cc2)nnc1C1CC1 90.3%, Cc1ccc([C@H]2C(C#N)=C(N)Oc3cc(C)oc(=O)c32)o1 -2.2%, CN(C)c1cccc(C(=O)N(Cc2ccccc2)Cc2ccccc2)c1 5.12%, CCC1(C)Cc2c(C#N)c(N)n(N)c(=S)c2CO1 (stereo unspecified) 10.2%, C=CCNc1nc(Cl)nc(Nc2ccc([N+](=O)[O-])cc2)n1 -31.3%, COc1ccc(-c2nnc3ccc(SCC(=O)N4CCOCC4)nn23)cc1 26%, Cc1ccsc1/C=N\NC(=O)CCc1c(C)n[nH]c1C -72.7%, CC#CCN(CC#CC)S(=O)(=O)c1ccc(-n2cnnn2)c(OC)c1 13.3%, COc1ccc(N2CCN(C(=O)COC(=O)CNC(=O)c3ccc(C)cc3)CC2)cc1 -4.66%, CC(C)(C)c1ccc(C(=O)N2CCN(S(=O)(=O)c3ccc(Br)s3)CC2)cc1 -23.6%, COc1cccc(-c2nc(CS(=O)CC(=O)NC3CCCC3)c(C)o2)c1 (stereo unspecified) 8.42%, CCOc1ccc(CCNC(=O)C2CC(=O)N(c3ccccc3OCC)C2)cc1OCC (stereo unspecified) 28.6%, CCC(=O)Nc1cc(-c2nc3ncccc3o2)ccc1Cl -79.3%, Cc1cc(C)nc(SCCC(=O)Nc2ccc(F)cc2)n1 -12.2%, CCCCNC(=O)NC12CC3CC(CC(C3)C1)C2 -11.5%, O=C1CN(c2nc(-c3ccccc3)c3ccccc3n2)c2ccccc2N1 13.5%, Cn1c(=O)c2c(n(C)c1=O)=NC1(CCCCC1)ON=2 21.7%, Cc1ccccc1C(=O)OC1OC(=O)C(Cl)=C1Nc1ccccc1 (stereo unspecified) 16.8%, CCc1nnc(NC(=O)C2CCCN(S(=O)(=O)c3ccc(OC)cc3)C2)s1 (stereo unspecified) -8.66%, Cc1ccc(S(=O)(=O)CCC(=O)OCC(=O)N(Cc2ccccc2)C(C)C)cc1 -3.16%, CCN1CCCC1CNC(=O)C(=O)NC(C)c1ccccc1 (stereo unspecified) 22.7%, COc1cccc(NC(=O)CSc2nc3ncc(Br)cc3[nH]2)c1 -7.31%, O=C(CNC(=O)c1ccccc1)NCC(=O)OCC(=O)c1ccccc1 (Bz-Gly-Gly-OPac) 8.09%, C=CCc1c(C)nc2cc(-c3ccccc3)[nH]n2c1=O -6.74%

Lipid storage change, negative = inhibition, inactive:
O=C(c1nc2ccc(Cl)cn2c1CN1CCCC(CO)C1)N1CCc2ccccc2C1 (stereo unspecified) -5.28%

Potency, inconclusive:
CC(CNc1ccc([N+](=O)[O-])cc1)NC(=O)c1ccccc1Br (stereo unspecified) 29.1 µM [rising, single point], CCN(CC(=O)Nc1c(F)cccc1F)C(=O)CNC(=O)c1sc2ccccc2c1Cl 23.1 µM [falling, single point], CCCCc1nnc(NC(=O)C(C)Sc2nc(N)cc(=O)[nH]2)s1 (stereo unspecified) 0.13 µM [falling, full curve, poor fit], CSCC[C@H](NC(=O)[C@@H]1CSC2c3ccccc3C(=O)N21)C(=O)N1CCC[C@H]1CO (stereo partly specified) 16.4 µM [activator, single point], CC(C)C[C@@H](CSc1ccccc1)N1CCN(C)CCC1=O 29.1 µM [falling, single point], CC(C)(C)c1cc(-n2ccnc2)n2ncc(-c3ccc(Cl)cc3)c2n1 13 µM [activator, partial curve, poor fit], CCOc1ccc(S(=O)(=O)NCc2ccc3c(c2)OCO3)cc1 18.4 µM [activator, single point], Cc1ccc(C(=O)NNC(=O)c2n[nH]c(=O)c3ccccc23)cc1C 29.1 µM [activator, single point], Cn1c(=O)c2c(ncn2CC(COCc2ccc(Cl)cc2)OCc2ccc(Cl)cc2)n(C)c1=O (stereo unspecified) 2.91 µM [activator, partial curve], COc1ccc(NC(=O)CCN2C(=O)c3ccc([N+](=O)[O-])cc3C2=O)c(OC)c1 13 µM [falling, partial curve, poor fit], CC1CCCC(C)N1C(=O)COC(=O)c1nn(C)c(=O)c2ccccc12 (stereo unspecified) 29.1 µM [falling, partial curve, poor fit], O=S(=O)(c1cc(Cl)c(Cl)cc1Cl)N1CCN2CCCC2C1 (stereo unspecified) 0.0146 µM [activator, full curve, poor fit], CC(C)Oc1cccc(C(=O)C2CCCN(C(=O)c3ccccn3)C2)c1 (stereo unspecified) 3.66 µM [activator, full curve, poor fit], O=C(Nc1cccc(C(F)(F)F)c1)c1cc[n+]([O-])cc1 0.184 µM [activator, full curve, poor fit], COCCCn1c(SCc2ccccc2)nc2cc(OC)c(OC)cc2c1=N 18.4 µM [falling, single point], CC(C)Cc1ccc(C(=O)NCc2ccc3c(c2)OCO3)o1 18.4 µM [activator, partial curve], Cc1cc(NC(=O)CSc2nnc(-c3c[nH]c4ccccc34)n2C)no1 29.1 µM [falling, single point], Cc1ccc(S(=O)(=O)N2CCOCC(=O)NCCOCCNC(=O)COCC2)cc1 0.461 µM [activator, single point], O=C1CC(c2ccccc2Cl)=NN(c2ncnc3ccccc23)C1=O 25.9 µM [falling, partial curve], CCOc1ccccc1NC(=O)C(Sc1nnnn1C)c1ccccc1 (stereo unspecified) 0.146 µM [falling, single point], CC(C)[C@H](NC(=O)c1ccco1)C(=O)N(C)Cc1ccc(C(F)(F)F)cc1 29.1 µM [activator, single point], COc1cc(NC(=O)c2cc(CC(C)C)on2)c(OC)cc1Cl 7.31 µM [activator, partial curve], COc1ccc(NC(=O)CN(C)C(=O)c2ccccc2OCC(=O)Nc2cccc(C(F)(F)F)c2)cc1 0.461 µM [activator, full curve, poor fit], O=C(c1ccc(F)cc1)c1cn[nH]c1-c1ccccc1O 23.1 µM [falling, single point]

Potency, active:
Fc1ccc(-n2ncc3c(SCc4cccnc4)ncnc32)cc1 23.1 µM, O=C(NCC1CCCC(CNC(=O)Nc2ccc(Cl)cn2)C1)Nc1ccc(Cl)cn1 (stereo unspecified) 0.082 µM, CCN(C(=O)c1ccccc1Cl)c1ccccc1 23.1 µM
